# Test results: article PMC6127144
# The chains behind the UniProt entries cited, without tags or fusion partners. Where a name states a change or a piece, a line headed by the entry shows the natural chain unless it says otherwise. A line that says so, or that is headed by a name, gives the form on record, which may keep a tag or linker.
# human plasma membrane Ca2+-ATPase 1, full-length human PMCA1d (P20020, form named): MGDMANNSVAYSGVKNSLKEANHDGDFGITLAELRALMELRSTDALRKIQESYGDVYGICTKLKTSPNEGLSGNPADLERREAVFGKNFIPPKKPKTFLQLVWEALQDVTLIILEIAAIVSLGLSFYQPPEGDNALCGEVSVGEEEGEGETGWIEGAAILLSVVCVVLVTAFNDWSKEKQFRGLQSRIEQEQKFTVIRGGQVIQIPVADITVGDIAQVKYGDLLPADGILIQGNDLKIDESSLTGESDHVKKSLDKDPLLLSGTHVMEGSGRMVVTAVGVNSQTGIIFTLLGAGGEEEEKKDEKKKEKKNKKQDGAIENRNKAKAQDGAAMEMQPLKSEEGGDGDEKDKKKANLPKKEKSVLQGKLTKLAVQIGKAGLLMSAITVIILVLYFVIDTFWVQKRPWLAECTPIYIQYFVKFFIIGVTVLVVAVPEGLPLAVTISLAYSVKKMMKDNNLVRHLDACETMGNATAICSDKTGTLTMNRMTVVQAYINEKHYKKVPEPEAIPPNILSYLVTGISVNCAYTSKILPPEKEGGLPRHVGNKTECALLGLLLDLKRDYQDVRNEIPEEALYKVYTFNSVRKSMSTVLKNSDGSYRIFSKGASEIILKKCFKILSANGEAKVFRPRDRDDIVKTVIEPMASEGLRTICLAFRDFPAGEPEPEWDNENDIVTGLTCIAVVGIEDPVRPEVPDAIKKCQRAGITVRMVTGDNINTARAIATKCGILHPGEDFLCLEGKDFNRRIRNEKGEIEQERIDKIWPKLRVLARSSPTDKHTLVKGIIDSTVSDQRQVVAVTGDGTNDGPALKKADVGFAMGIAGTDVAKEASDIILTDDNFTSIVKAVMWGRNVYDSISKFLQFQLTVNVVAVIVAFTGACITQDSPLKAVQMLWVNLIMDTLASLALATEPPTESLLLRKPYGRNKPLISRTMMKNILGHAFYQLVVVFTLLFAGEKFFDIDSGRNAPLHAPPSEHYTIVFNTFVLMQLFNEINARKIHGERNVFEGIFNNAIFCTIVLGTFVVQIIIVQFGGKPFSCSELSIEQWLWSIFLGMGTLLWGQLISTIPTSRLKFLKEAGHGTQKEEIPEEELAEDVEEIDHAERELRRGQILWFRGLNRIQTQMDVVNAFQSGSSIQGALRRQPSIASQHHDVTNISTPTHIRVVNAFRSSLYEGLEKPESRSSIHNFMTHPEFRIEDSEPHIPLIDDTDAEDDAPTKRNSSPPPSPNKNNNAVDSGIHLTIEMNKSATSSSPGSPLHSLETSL
# Results are given in words; binding and its absence hold for the method and conditions named. In cells and extracts the contact can be indirect. These calls come from enrichment with a bait or labelling near it, and not all partners need be listed.
# Target: human plasma membrane Ca2+-ATPase 1, full-length human PMCA1d (human) (UniProt P20020)
# Test: affinity purification with mass spectrometry; hPMCA1-FLAG-His8 purified from DDM/CHS-solubilised HEK293F membranes by anti-FLAG M2 gel, Ni-NTA and SEC (Superose 6, 0.1% digitonin); ~55 kDa smear bands that co-migrated with hPMCA1 analysed by MS
substance,measurement,value
basigin (from UniProt P35613-2),binding,binds
